Data as given in US10849880B2, “Pharmaceutical composition” (FUJIFILM Toyama Chemical Co., Ltd., priority 2016, dated 2020).

Assay: Evaluation of bitter taste (post-bitter taste) with taste sensing system SA402B, CPA value, 1 mg/mL sample
Conditions: bitter taste score from CPA value via sensory calibration curve; maleate of compound A 1 mg/mL in 10 mmol/L KCl, agitated 30 minutes

With `OC1CN(CCCOCCc2ccc3sccc3c2)C1` [compound 14, 1-(3-(2-(1-benzothiophen-5-yl)ethoxy)propyl)azetidin-3-ol] the “Bitter taste (post-bitter taste)” value was 3.0.
